The results in this text go back to PubChem BioAssay AID330 (DTP/NCI, 2004).

This experiment has as its system P388 leukemia ip, CD2F1 mice, survival T/C. The experiment is described as follows: NCI In Vivo Anticancer Drug Screen. Data for tumor model P388 Leukemia (intraperitoneal) in CD2F1 (CDF1) mice. Conditions: T/C endpoint: median survival time, higher T/C = longer survival.
[1] abbreviates: dose: 200.0 mg/kg/injection, schedule: Q01DX009 (ip), vehicle: saline.
Setting [2] is: dose: 100.0 mg/kg/injection, schedule: Q01DX005 (ip), vehicle: Klucel (hydroxypropylcellulose) (HPC).
[3] abbreviates: dose: 200.0 mg/kg/injection, schedule: Q01DX005 (ip), vehicle: Klucel (hydroxypropylcellulose) (HPC).
[4] abbreviates: dose: 240.0 mg/kg/injection, schedule: Q01DX005 (ip), vehicle: Klucel (hydroxypropylcellulose) (HPC).
The mark [5] stands for this setting: dose: 50.0 mg/kg/injection, schedule: Q01DX005 (ip), vehicle: Klucel (hydroxypropylcellulose) (HPC).
Where [6] appears, read: dose: 400.0 mg/kg/injection, schedule: Q04DX003 (ip), vehicle: saline with Tween-80.
Where [7] appears, read: dose: 200.0 mg/kg/injection, schedule: Q01DX009 (ip), vehicle: Klucel (hydroxypropylcellulose) (HPC).
[8] abbreviates: dose: 132.0 mg/kg/injection, schedule: Q04DX003 (ip), vehicle: saline with Tween-80.
Where [9] appears, read: dose: 200.0 mg/kg/injection, schedule: Q01DX005 (ip), vehicle: saline with Tween-80.

The list does not hold the whole screen: it is rich in T/C values a quarter to a half above the control, in often repeated tests (any T/C) and in doses without a T/C. Further doses and runs are listed elsewhere. T/C: endpoint of the treated group in % of that of the vehicle group. Some doses have a count of surviving animals in place of a T/C: the source holds a T/C of zero for them, seemingly a mark for toxic or unscored doses. Some survivor counts are full or nearly so, which does not show that the dose was tolerated: the source hardly ever lists a survival T/C far under the control, and the zero likely stands for such cases as well. Survivors were counted at the toxicity check, usually on the fifth day, unless a day is given; later deaths do not show. Schedule codes are those of the source, taken here to give the interval after Q, in days (D) or hours (H), and the number of doses after X. Some doses were run more than once; the values are given in rising order. Marks such as (2×) say how often a value occurs here. Where survival is the endpoint, the PubChem record calls one and a half times the control and up active, and a quarter to a half above the control has no call in these data; cut-offs in other NCI protocols can differ.

Take `[Cu].c1ccc2c3[n-]c(c2c1)/N=c1\[n-]/c(c2ccccc12)=N\c1[n-]c(c2ccccc12)/N=c1\[n-]/c(c2ccccc12)=N\3`: the survivor count under setting [1] is 1 of 6 and the survivor count (dose: 400.0 mg/kg/injection, schedule: Q01DX009 (ip), vehicle: saline) is 0 of 6.
Consider `COc1ccc(-c2cc(=O)c3cccc(CC(=O)O)c3o2)cc1`, for which the T/C under setting [2] is 141 % of control. Under setting [3], the survivor count was 2 of 6.
For the compound `COc1ccc(C2OC3=C(Nc4ccc([N+](=O)[O-])cc4N3)C2=O)cc1` (stereo unspecified), the survivor count by setting is: (dose: 7.5 mg/kg/injection, schedule: Q01DX005 (ip), vehicle: Klucel (hydroxypropylcellulose) (HPC)) 6 of 6; (dose: 15.0 mg/kg/injection, schedule: Q01DX005 (ip), vehicle: Klucel (hydroxypropylcellulose) (HPC)) 6 of 6; (dose: 30.0 mg/kg/injection, schedule: Q01DX005 (ip), vehicle: Klucel (hydroxypropylcellulose) (HPC)) 6 of 6; (dose: 60.0 mg/kg/injection, schedule: Q01DX005 (ip), vehicle: Klucel (hydroxypropylcellulose) (HPC)) 6 of 6; (dose: 120.0 mg/kg/injection, schedule: Q01DX005 (ip), vehicle: Klucel (hydroxypropylcellulose) (HPC)) 2 of 6; under setting [4], 0 of 6.
For `CCN(CC)C(=O)N1C=CC(C)C=C1`, the survivor count (dose: 240.0 mg/kg/injection, schedule: Q01DX005 (ip), vehicle: saline with Tween-80) is 1 of 6.
Take `CCCCCCC(=O)/C=C/c1cc(OC)ccc1OC`: where the note is “dose: 50.0 mg/kg/injection, schedule: Q01DX009 (ip), vehicle: saline with Tween-80”, the T/C is 135 % of control.
For `CCCC[As](CCCC)SC1OC(C2COC(C)(C)O2)C2OC(C)(C)OC12` (stereo unspecified), the survivor count was 4 of 6 (dose: 12.5 mg/kg/injection, schedule: Q01DX009 (ip), vehicle: distilled water + Tween-80); 0 of 6 (dose: 25.0 mg/kg/injection, schedule: Q01DX009 (ip), vehicle: distilled water + Tween-80); 6 of 6 (dose: 50.0 mg/kg/injection, schedule: Q01DX009 (ip), vehicle: distilled water + Tween-80); 2 of 6 (dose: 100.0 mg/kg/injection, schedule: Q01DX009 (ip), vehicle: distilled water + Tween-80); 0 of 6 (dose: 200.0 mg/kg/injection, schedule: Q01DX009 (ip), vehicle: distilled water + Tween-80).
Take `O=P(CCP(=O)(c1ccccc1)c1ccccc1)(c1ccccc1)c1ccccc1.[Cl][Sn]([Cl])([c]1ccccc1)[c]1ccccc1`: the T/C is, setting by setting: (dose: 3.12 mg/kg/injection, schedule: Q01DX005 (ip), vehicle: Klucel (hydroxypropylcellulose) (HPC)) 128 % of control; (dose: 6.25 mg/kg/injection, schedule: Q01DX005 (ip), vehicle: Klucel (hydroxypropylcellulose) (HPC)) 126 and 131 % of control. Further, the survivor count by setting is: (dose: 12.5 mg/kg/injection, schedule: Q01DX005 (ip), vehicle: Klucel (hydroxypropylcellulose) (HPC)) 1 of 6; under setting [5], 2 of 6; under setting [2], 0 of 6; under setting [3], 0 of 6.
Consider `Nc1ccc(C(=O)c2cccs2)cn1`, for which the survivor count (dose: 200.0 mg/kg/injection, schedule: Q01DX005 (ip), vehicle: distilled water + alcohol) is reported as 3 of 5.
Consider `CC1CCCCN1C=C1C(=O)OC(C)(C)OC1=O` (stereo unspecified), for which the survivor count under setting [4] was 2 of 6.
Regarding `Cc1ccc(CCN2CSC(=S)N(CCc3ccc(C)cc3)C2)cc1`, the survivor count is listed as 6 of 6 (dose: 100.0 mg/kg/injection, schedule: Q01DX009 (ip), vehicle: other) and 4 of 6 (dose: 200.0 mg/kg/injection, schedule: Q01DX009 (ip), vehicle: other).
In the case of `FC(F)(F)C1(C(F)(F)F)N=CC=CN1`, the survivor count (dose: 200.0 mg/kg/injection, schedule: Q01DX009 (ip), vehicle: distilled water + alcohol) is given as 0 of 6.
Turning to `O=C(O)CCS(=O)(=O)CCC(=O)O`, the survivor count under setting [6] is listed as 5 of 6.
Regarding `Cc1ccc2[nH]cc(C3CCCN4CCCCC34)c2c1` (stereo unspecified), the survivor count was 0 of 6 (dose: 180.0 mg/kg/injection, schedule: Q01DX001 (ip), vehicle: saline with Tween-80) and 0 of 6 (dose: 360.0 mg/kg/injection, schedule: Q01DX001 (ip), vehicle: saline with Tween-80).
With `[CH3][Sn]([CH3])([O]C(=O)CNC(=O)c1ccccc1)[O]C(=O)CNC(=O)c1ccccc1`, the survivor count (dose: 100.0 mg/kg/injection, schedule: Q01DX001 (ip), vehicle: saline) is reported as 0 of 6; the survivor count (dose: 200.0 mg/kg/injection, schedule: Q01DX001 (ip), vehicle: saline) is 0 of 6; the survivor count (dose: 400.0 mg/kg/injection, schedule: Q01DX001 (ip), vehicle: saline) was 0 of 6.
For `Nc1c(I)cc(I)cc1C(=O)O`, under setting [7], the T/C was 126 % of control and the survivor count is 6 of 6.
Consider `CC1(C)N=C(N)N=C(N)N1c1ccc(CNC(=O)Nc2ccc(S(=O)(=O)F)cc2)c(Cl)c1`, for which the T/C (dose: 59.0 mg/kg/injection, schedule: Q04DX003 (ip), vehicle: saline with Tween-80) was 136 % of control; the T/C (dose: 88.0 mg/kg/injection, schedule: Q04DX003 (ip), vehicle: saline with Tween-80) is 145 % of control; the T/C (dose: 100.0 mg/kg/injection, schedule: Q04DX003 (ip), vehicle: saline with Tween-80) is 140 % of control; the T/C under setting [8] is 131 % of control. For the same compound, the survivor count was 1 of 6 under setting [8]; 1 of 6 and 6 of 6 (dose: 200.0 mg/kg/injection, schedule: Q04DX003 (ip), vehicle: saline with Tween-80); 0 of 6 and 2 of 6 (dose: 300.0 mg/kg/injection, schedule: Q04DX003 (ip), vehicle: saline with Tween-80); 2 of 6 under setting [6].
Consider `CCNC(=O)OCc1cnc(C)c(O)c1COC(=O)NCC`, for which, under setting [9], the survivor count is on record as 6 of 6.
Turning to `COc1cc2c(c(OC)c1OC)CCC1C(=O)NN=C21` (stereo unspecified), the survivor count is, setting by setting: (dose: 100.0 mg/kg/injection, schedule: Q04DX003 (ip), vehicle: Klucel (hydroxypropylcellulose) (HPC)) 6 of 6; (dose: 200.0 mg/kg/injection, schedule: Q04DX003 (ip), vehicle: Klucel (hydroxypropylcellulose) (HPC)) 6 of 6; (dose: 400.0 mg/kg/injection, schedule: Q04DX003 (ip), vehicle: Klucel (hydroxypropylcellulose) (HPC)) 6 of 6.
Consider `[I][Hg][CH]1CCC2CCCC1O2` (stereo unspecified), for which the survivor count (dose: 50.0 mg/kg/injection, schedule: Q01DX009 (ip), vehicle: Klucel (hydroxypropylcellulose) (HPC)) is given as 2 of 6.
On to `CCOC(=O)c1n[nH]c(C)c1CC(N)c1ccccc1` (stereo unspecified), for which the survivor count (dose: 50.0 mg/kg/injection, schedule: Q01DX005 (ip), vehicle: saline with Tween-80) was 0 of 5 (2×); the survivor count (dose: 100.0 mg/kg/injection, schedule: Q01DX005 (ip), vehicle: saline with Tween-80) is given as 0 of 5; the survivor count under setting [9] is recorded as 0 of 5.
`CCN(C)c1cc(=O)c2ccc3ccccc3c2o1`: the survivor count (dose: 200.0 mg/kg/injection, schedule: Q01DX009 (ip), vehicle: saline with Tween-80) is on record as 3 of 6.
With `COc1ncnc2c1ccn2C1OC(CO)C(O)C1O` (stereo unspecified), the survivor count runs as follows: (dose: 25.0 mg/kg/injection, schedule: Q01DX005 (ip), vehicle: Klucel (hydroxypropylcellulose) (HPC)) 4 of 6; under setting [5], 6 of 6; under setting [2], 0 of 6; under setting [3], 0 of 6.
In the case of `CCC1CN2CCO[Si](CC[Si](C)(C)C)(OCC2)O1` (stereo unspecified), the survivor count under setting [5] was 5 of 6 and the survivor count under setting [2] is reported as 5 of 6.
In the case of `COc1ccccc1N=N/C(=N\Nc1ccccc1OC)C(=O)Nc1ccccc1`, the survivor count is on record as 6 of 6 (dose: 50.0 mg/kg/injection, schedule: Q01DX009 (ip), vehicle: saline) and 5 of 6 under setting [1].
